Measured values: article PMC11139282, “Structure and activity of the septal peptidoglycan hydrolysis machinery crucial for bacterial cell division” (PLOS Biology, 2024)
These are yes or no findings as the source states them, for the method shown. For some of these results: Binding seen in cells or lysates may run through a third protein. Some binding calls cover weakened binding; strength is not graded here. For some of these results: Where a sequence is shown, tags or fusion partners need not be part of it. Values belong to the binder of their own block, whether it stands above or below them.

Columns and labels:
[1] = biological target: T1, FtsX^Δ4–18 (E. coli K-12) (UniProt P0AC30); assay: cryo-EM structure; ATP-bound FtsE^E163QX^Δ4-18-EnvC(35-420) reconstituted in PMAL-C8, about 1 mg/ml, 3.11 Å; both purified
T1 sequence: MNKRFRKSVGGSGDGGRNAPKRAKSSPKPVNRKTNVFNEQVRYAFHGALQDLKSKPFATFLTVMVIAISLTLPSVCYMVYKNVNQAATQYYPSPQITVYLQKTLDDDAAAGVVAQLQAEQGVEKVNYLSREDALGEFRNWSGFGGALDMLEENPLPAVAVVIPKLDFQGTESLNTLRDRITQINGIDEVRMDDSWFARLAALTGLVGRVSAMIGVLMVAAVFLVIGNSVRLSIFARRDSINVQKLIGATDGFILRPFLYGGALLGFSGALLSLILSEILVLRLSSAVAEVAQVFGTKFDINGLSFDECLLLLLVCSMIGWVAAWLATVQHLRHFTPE

[2] = biological target: T2, FtsX (co-expressed with FtsE^E163Q) (E. coli K-12) (UniProt P0AC30); assay: co-purification (HisTrap + SEC); FtsE^E163Q and FtsX co-expressed in E. coli C43(DE3); membranes solubilised in 1% DDM with 1 mM ATP; HisTrap, SEC, TEV cleavage, SEC; 20 mM Tris pH 8.0, 300 mM NaCl
T2 sequence: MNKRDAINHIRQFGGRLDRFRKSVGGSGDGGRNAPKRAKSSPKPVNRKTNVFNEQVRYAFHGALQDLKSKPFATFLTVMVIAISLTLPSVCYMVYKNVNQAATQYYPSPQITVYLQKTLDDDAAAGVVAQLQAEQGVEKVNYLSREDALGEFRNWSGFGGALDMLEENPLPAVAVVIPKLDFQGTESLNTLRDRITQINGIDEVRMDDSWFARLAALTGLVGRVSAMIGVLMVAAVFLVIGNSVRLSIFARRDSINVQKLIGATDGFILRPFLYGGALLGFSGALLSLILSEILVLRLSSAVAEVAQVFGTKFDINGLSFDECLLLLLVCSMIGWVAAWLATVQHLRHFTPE

[3] = biological target: T1, FtsX^Δ4–18 (E. coli K-12); assay: cryo-EM structure; ATP-bound FtsE^E163QX^Δ4-18 in PMAL-C8, about 1 mg/ml, 3.05 Å; both purified
EnvC_(35-420) [4] = biological target: T3, EnvC_(35-420) (E. coli K-12, UniProt P37690 35-419); assay: cryo-EM structure; ATP-bound FtsE^E163QX^Δ4-18-EnvC(35-420) reconstituted in PMAL-C8, about 1 mg/ml, 3.11 Å; both purified
T3 construct: Only part of the coiled-coil domain is modelled in the cryo-EM structure; also called ecEnvC; source: E. coli C43(DE3), purified (Ni-NTA, SEC, TEV, Ni-NTA, SEC); not shown: His8, N-terminal, cleaved; SUMO, N-terminal, cleaved; Strep tag II, C-terminal, kept
T3 sequence (looked up): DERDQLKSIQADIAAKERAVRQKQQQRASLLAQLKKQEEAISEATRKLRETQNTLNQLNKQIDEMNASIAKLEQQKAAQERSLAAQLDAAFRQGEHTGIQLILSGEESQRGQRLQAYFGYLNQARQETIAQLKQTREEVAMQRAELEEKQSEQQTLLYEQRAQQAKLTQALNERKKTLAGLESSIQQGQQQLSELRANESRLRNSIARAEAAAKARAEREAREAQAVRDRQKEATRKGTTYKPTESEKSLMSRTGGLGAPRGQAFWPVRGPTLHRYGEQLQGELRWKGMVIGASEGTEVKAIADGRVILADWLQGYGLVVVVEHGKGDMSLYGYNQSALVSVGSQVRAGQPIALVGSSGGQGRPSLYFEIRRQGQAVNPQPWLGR

EnvC_(35-420) [5] = biological target: T3, EnvC_(35-420); assay: pull-down + SEC; purified FtsE^E163QX or FtsX incubated with EnvC(35-420)-Strep at a molar ratio of 1:1.5, moved into PMAL-C8; Strep column to remove unbound FtsEX or FtsX, then Superdex 200 in 20 mM Tris pH 8.0, 300 mM NaCl (1 mM ATP for FtsE^E163QX); peak validated by SDS-PAGE; both purified
[6] = biological target: T4, FtsX(His&Myc) (E. coli K-12) (UniProt P0AC30); assay: co-sedimentation; membrane fraction (140,000 x g) of E. coli WZC1 co-expressing Flag-FtsE and FtsX-His8-Myc or its mutants; western blot with anti-Flag and anti-Myc
T4 sequence: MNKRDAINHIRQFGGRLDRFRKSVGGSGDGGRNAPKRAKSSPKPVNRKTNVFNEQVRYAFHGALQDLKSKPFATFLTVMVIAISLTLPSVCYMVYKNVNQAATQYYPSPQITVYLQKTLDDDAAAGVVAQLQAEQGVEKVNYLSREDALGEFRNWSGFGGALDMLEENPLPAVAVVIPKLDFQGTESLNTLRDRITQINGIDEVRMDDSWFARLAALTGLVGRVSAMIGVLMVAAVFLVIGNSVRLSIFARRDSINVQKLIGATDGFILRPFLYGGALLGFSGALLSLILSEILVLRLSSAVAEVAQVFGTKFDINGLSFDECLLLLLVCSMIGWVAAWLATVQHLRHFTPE

[7] = biological target: T5, FtsX^I261D (E. coli K-12) (UniProt P0AC30); assay: as above
T5 sequence: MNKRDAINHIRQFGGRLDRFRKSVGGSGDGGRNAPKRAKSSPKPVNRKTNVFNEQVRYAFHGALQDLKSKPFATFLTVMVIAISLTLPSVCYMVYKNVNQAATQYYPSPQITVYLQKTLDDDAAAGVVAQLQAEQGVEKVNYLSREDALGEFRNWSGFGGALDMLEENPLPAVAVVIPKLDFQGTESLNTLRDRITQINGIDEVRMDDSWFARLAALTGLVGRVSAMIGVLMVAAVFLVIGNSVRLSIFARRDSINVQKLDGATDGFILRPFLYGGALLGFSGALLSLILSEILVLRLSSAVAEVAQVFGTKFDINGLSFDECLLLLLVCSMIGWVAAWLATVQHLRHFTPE

binding (EnvC_(35-420) [4]): binds
B2: FtsE^E163QX^Δ4–18 complex (complex, UniProt P0A9R7 1-222; P0AC30 1-352)
chain 1: MIRFEHVSKAYLGGRQALQGVTFHMQPGEMAFLTGHSGAGKSTLLKLICGIERPSAGKIWFSGHDITRLKNREVPFLRRQIGMIFQDHHLLMDRTVYDNVAIPLIIAGASGDDIRRRVSAALDKVGLLDKAKNFPIQLSGGEQQRVGIARAVVNKPAVLLADQPTGNLDDALSEGILRLFEEFNRVGVTVLMATHDINLISRRSYRMLTLSDGHLHGGVGHE
chain 2: MNKRFRKSVGGSGDGGRNAPKRAKSSPKPVNRKTNVFNEQVRYAFHGALQDLKSKPFATFLTVMVIAISLTLPSVCYMVYKNVNQAATQYYPSPQITVYLQKTLDDDAAAGVVAQLQAEQGVEKVNYLSREDALGEFRNWSGFGGALDMLEENPLPAVAVVIPKLDFQGTESLNTLRDRITQINGIDEVRMDDSWFARLAALTGLVGRVSAMIGVLMVAAVFLVIGNSVRLSIFARRDSINVQKLIGATDGFILRPFLYGGALLGFSGALLSLILSEILVLRLSSAVAEVAQVFGTKFDINGLSFDECLLLLLVCSMIGWVAAWLATVQHLRHFTPE

binding [6]: binds
binding [7]: binds weakly
B4: FtsE(Flag) (protein, UniProt P0A9R7 1-222)
chain: MIRFEHVSKAYLGGRQALQGVTFHMQPGEMAFLTGHSGAGKSTLLKLICGIERPSAGKIWFSGHDITRLKNREVPFLRRQIGMIFQDHHLLMDRTVYDNVAIPLIIAGASGDDIRRRVSAALDKVGLLDKAKNFPIQLSGGEQQRVGIARAVVNKPAVLLADEPTGNLDDALSEGILRLFEEFNRVGVTVLMATHDINLISRRSYRMLTLSDGHLHGGVGHE

More lines, now with the values behind:

B1: FtsE^E163Q (natural protein, E. coli K-12, UniProt P0A9R7 1-222, looked up)
chain: MIRFEHVSKAYLGGRQALQGVTFHMQPGEMAFLTGHSGAGKSTLLKLICGIERPSAGKIWFSGHDITRLKNREVPFLRRQIGMIFQDHHLLMDRTVYDNVAIPLIIAGASGDDIRRRVSAALDKVGLLDKAKNFPIQLSGGEQQRVGIARAVVNKPAVLLADQPTGNLDDALSEGILRLFEEFNRVGVTVLMATHDINLISRRSYRMLTLSDGHLHGGVGHE
notes: The pSUMO plasmid adds an N-terminal His8-SUMO-TEV site, removed by TEV; Two copies stand in the FtsEX complex; also called ecFtsE^E163Q; not shown: His8 (chain inferred: first gene of pSUMO-ftsEX), N-terminal, cleaved; SUMO (chain inferred: first gene of pSUMO-ftsEX), N-terminal, cleaved
binding [1]: binds
binding [2]: binds
binding [3]: binds

B3: FtsE^E163QX complex (complex, UniProt P0A9R7 1-222; P0AC30 1-352)
chain 1: MIRFEHVSKAYLGGRQALQGVTFHMQPGEMAFLTGHSGAGKSTLLKLICGIERPSAGKIWFSGHDITRLKNREVPFLRRQIGMIFQDHHLLMDRTVYDNVAIPLIIAGASGDDIRRRVSAALDKVGLLDKAKNFPIQLSGGEQQRVGIARAVVNKPAVLLADQPTGNLDDALSEGILRLFEEFNRVGVTVLMATHDINLISRRSYRMLTLSDGHLHGGVGHE
chain 2: MNKRDAINHIRQFGGRLDRFRKSVGGSGDGGRNAPKRAKSSPKPVNRKTNVFNEQVRYAFHGALQDLKSKPFATFLTVMVIAISLTLPSVCYMVYKNVNQAATQYYPSPQITVYLQKTLDDDAAAGVVAQLQAEQGVEKVNYLSREDALGEFRNWSGFGGALDMLEENPLPAVAVVIPKLDFQGTESLNTLRDRITQINGIDEVRMDDSWFARLAALTGLVGRVSAMIGVLMVAAVFLVIGNSVRLSIFARRDSINVQKLIGATDGFILRPFLYGGALLGFSGALLSLILSEILVLRLSSAVAEVAQVFGTKFDINGLSFDECLLLLLVCSMIGWVAAWLATVQHLRHFTPE
binding (EnvC_(35-420) [5]): binds
